Literature values as cited in patent publication US20110086877A1 (priority 2005, published 2011).
Some entries share one result that the patent states for a list of compounds.

Chains of the proteins cited; added tags and fusions are not shown. Residues count along the entry.
UniProt P0DPI0, 2-448 limits assumed: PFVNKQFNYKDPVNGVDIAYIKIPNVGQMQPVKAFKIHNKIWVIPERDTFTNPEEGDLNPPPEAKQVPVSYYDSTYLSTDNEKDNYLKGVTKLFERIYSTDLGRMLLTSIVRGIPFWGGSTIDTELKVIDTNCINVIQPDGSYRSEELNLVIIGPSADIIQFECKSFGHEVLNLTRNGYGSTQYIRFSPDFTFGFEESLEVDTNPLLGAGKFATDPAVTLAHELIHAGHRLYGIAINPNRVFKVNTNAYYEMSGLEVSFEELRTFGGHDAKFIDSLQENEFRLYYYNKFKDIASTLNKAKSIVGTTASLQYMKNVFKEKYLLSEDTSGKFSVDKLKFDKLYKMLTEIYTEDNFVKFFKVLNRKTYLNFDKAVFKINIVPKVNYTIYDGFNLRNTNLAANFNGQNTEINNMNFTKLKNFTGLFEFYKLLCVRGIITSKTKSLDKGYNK

Molecular target: BoNT/A LC metalloprotease (Clostridium botulinum, UniProt P0DPI0)
Details: cited from earlier work

In the case of Michellamine B [NSC 661755], the “inhibition of BoNT/A LC metalloprotease activity” value is given as “greater than 40%”.
